“Also recorded” adds a separate entry of the source. For at least one compound, name, drawing or mass did not settle the structure.
How the values were obtained:
[1] = test system: A549 non-small cell lung carcinoma (NSCLC) xenografts; assay: Antitumor efficacy in A549 NSCLC xenografts in nude mice; type: in vivo
Description: In the current study, compound (1) was evaluated for its antitumor activity against the A549 NSCLC human xenograft model in nude mice. A549 cells appear to have a functional Notch signaling pathway since receptors, ligands, and downstream effectors such as Hes-1 and Hey-1 are expressed (as assessed by PCR-based gene expression profiling). A549 cells have at least one identifiable defect in the Notch pathway; the negative regulator Numb is expressed only at low levels. In vitro, nM concentrations of compound (1) induce a less transformed phenotype in A549 cells and loss of growth in soft agar […], which is consistent with mechanistic inhibition of Notch activation. […] The health of all animals was determined daily by gross observation of experimental animals and by the analyses of blood samples of sentinel animals that were housed on the shared shelf racks. […] Tumor volume (in cubic millimeters) was calculated using the ellipsoid formula: (D×(d2))/2 where ‘D’ represents the large diameter of the tumor, and ‘d’ represents the small diameter. In some cases, tumor regression and/or percent change in tumor volume was calculated using the formula: ((T−T0)/T0)×100 where ‘T’ represents mean tumor volume of the treated group at a particular day, and ‘T0’ represents mean tumor volume of the same treated group at initiation of treatment. […]

H460a NSCLC xenografts = assay: Antitumor efficacy in H460a NSCLC xenografts in nude mice; type: in vivo; details: all doses
Description: Female nude mice (10/group), obtained from Charles River Laboratories (Wilmington, Mass.) were used when they were approximately 13-14 weeks old and weighed approximately 23-25 grams. The health of all animals was determined daily by gross observation of experimental animals and by the analyses of blood samples of sentinel animals that were housed on the shared shelf racks. All animals were allowed to acclimate and recover from any shipping related stress for a minimum of 72 hours prior to experimental use. Autoclaved water and irradiated food [5058-ms Pico chow (mouse) Purina, Richmond, Ind.] were provided ad libitum, and the animals were maintained on a 12-hour light and dark cycle. Cages, bedding and water bottles were autoclaved before use and were changed weekly. Lovo human colorectal, Calu-6 NSCLC, and HCT116 colorectal cells were purchased from ATCC (Manassas, Va.). […] NSCLC cells were a gift from Dr. Jack Roth, MD Anderson Medical Center, Houston, Tex. Lovo cells were cultured in F12K culture medium, Calu-6 and […] were grown in Dulbecco's Modified Essential Medium (DMEM), and HCT116 cells were grown in McCoy's 5A medium. […] Statistical analysis was determined by the rank sum test and One Way Anova and a post-hoc Bonferroni t-test (SigmaStat, version 2.0, Jandel Scientific, San Francisco, Calif.). […]

A549 cells = assay: FACS cell cycle analysis in A549 cells; type: cell-based, human; details: 5 μM at 72 and 120 hours
Description: The A549 cell line was obtained from the American Tissue Culture Collection (ATCC), Manassas, Va. and maintained in Ham's media supplemented with 10% heat-inactivated Fetal Bovine Serum (HI-FBS; GIBCO/BRL, Gaithersburg, Md.) and 2 mM L-glutamine (GIBCO/BRL). 1×10^6 A549 cells were seeded in […] plates for FACS analysis and 3×10^5 cells per well were seeded in 6-well plate for Western blot analysis. Cells were allowed to attach for 24 hours and then treated with compound (1) compound at the following concentrations: 0.1, 0.25, 0.5, 1, 2.5 and 5 μM. Cells were incubated for either 72 or 120 hours and collected for FACS analysis.
Cells were incubated with compound (1) for 72 or 120 hours, harvested by scraping, washed twice in phosphate-buffered saline (PBS), spun down at 1.5×10^3 rpm, and fixed at −20° C. overnight with 70% ethanol. Cells were then analyzed using MPM2-FITC and propidium iodide (PI) double staining (Becton Dickinson, San Jose, Calif.). […]
Samples were analyzed on a FACScan flow cytometer (Becton Dickinson, San Jose, Calif.) equipped with a 488 nm argon ion laser. Green fluorescein isothiocyanate (FITC) fluorescence was collected with a 530/30 nm bandpass filter using logarithmic amplification and orange emission from propidium iodide (PI) was filtered through a 585/42 nm bandpass filter using linear amplification. […]

[2] = test system: ICN and Hes1 expression in A549 cells; assay: Western blot analysis of Notch processing in A549 cells; type: cell-based, human
human NSCLC A549 cells = assay: Tumor cell phenotype in tissue culture; type: cell-based
[3] = test system: Collagen type V, MFAP5, Notch-1 and ICN in A549 xenograft tumors; assay: A549 xenograft tumor Western blot analysis after dosing; type: in vivo, nude mice; details: daily oral dosing for 21 days
[4] = test system: MDA-MB-468 breast tumor cells; assay: Soft agar colony forming assay; type: cell-based, human; details: 0, 100 or 250 nM, 4 weeks
[5] = test system: BxPC3 pancreatic xenografts; assay: Antitumor efficacy in BxPC3 pancreatic xenografts in SCID-beige mice; type: in vivo; details: daily dosed groups, day 50 vs day 35
Description: Female (athymic nu/nu) nude mice were obtained from Charles River Laboratories (Wilmington, Mass.), while female SCID-beige mice were purchased from Taconic (Germantown, N.Y.). Mice were used when they were approximately 8-12 weeks old (nudes) or 8-10 weeks old (SCID-beige), and weighed approximately 23-25 grams. The health of all animals was determined daily by gross observation of experimental animals and by the analyses of blood samples of sentinel animals that were housed on the shared shelf racks. All animals were allowed to acclimate and recover from any shipping related stress for a minimum of 72 hours prior to experimental use. […] Tumor volume (in cubic millimeters) was calculated using the ellipsoid formula: (D×(d2))/2 where ‘D’ represents the large diameter of the tumor, and ‘d’ represents the small diameter. In some cases, tumor regression and/or percent change in tumor volume was calculated using the formula: ((T−T0)/T0)×100 where ‘T’ represents mean tumor volume of the treated group at a particular day, and ‘T0’ represents mean tumor volume of the same treated group at initiation of treatment. Statistical analysis was determined by the rank sum test and One Way Anova and a post-hoc Bonferroni t-test (SigmaStat, version 2.0, Jandel Scientific, San Francisco, Calif.). […]

## CC(C)(C(=O)NCC(F)(F)C(F)(F)F)C(=O)N[C@@H]1C(=O)Nc2ccccc2-c2ccccc21 [Compound (1), 2,2-Dimethyl-N—((S)-6-oxo-6,7-dihydro-5H-dibenzo[b,d]azepin-7-yl)-N′-(2,2,3,3,3-pentafluoro-propyl)-malonamide]
[1]; 10 mg/kg for 21 days vs vehicle
  histological analysis of tumor sections (H & E): increased areas of necrosis and cellular matrix
[1]; 60 mg/kg bid, 7+/14− schedule
  initial tumor response: regression
H460a NSCLC xenografts
  sensitivity of the model to tumor growth inhibition: completely refractory; also recorded: completely resistant
A549 cells
  effect on cell cycle progression: modest cell cycle slowing
[2]
  Notch processing / ICN expression by Western blot: reduces Notch processing; also recorded: suppresses the production of ICN
  expression of Hes1 by Western blot: reduced expression
Human NSCLC A549 cells; A549 cells, five days of treatment
  tumor cell phenotype in tissue culture: flattened and less transformed tumor cell phenotype
Human NSCLC A549 cells; tumor cells in culture
  tumor cell proliferation and apoptosis: does not block tumor cell proliferation nor induce apoptosis
[3]
  Collagen type V expression: significantly reduced
  MFAP5 protein expression: elevated
[4]
  colony growth in soft agar: reduced colony growth in a dose-dependent manner
[5]
  tumor growth after cessation of treatment: sustained tumor growth inhibition
